Test results published in paper PMC11610131.
These are yes or no findings as the source states them, for the method shown. In cells and extracts the contact can be indirect. Binding calls can cover weak binding; strength is not graded here.

Protein sequences, listed by entry. Tags and fused reporters are not part of them. Lines headed by an entry give the natural chain unless they say otherwise; changes in a name come on top. Residues count along the entry.
UniProt Q9NZQ7, residues 19-290: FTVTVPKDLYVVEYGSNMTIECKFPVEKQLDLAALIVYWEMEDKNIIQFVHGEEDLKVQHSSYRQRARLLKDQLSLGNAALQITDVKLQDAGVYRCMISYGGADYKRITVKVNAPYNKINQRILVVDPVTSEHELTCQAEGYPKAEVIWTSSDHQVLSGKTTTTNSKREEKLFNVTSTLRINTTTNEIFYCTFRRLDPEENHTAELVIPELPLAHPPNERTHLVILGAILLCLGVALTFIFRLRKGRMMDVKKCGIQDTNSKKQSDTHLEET
UniProt P03956: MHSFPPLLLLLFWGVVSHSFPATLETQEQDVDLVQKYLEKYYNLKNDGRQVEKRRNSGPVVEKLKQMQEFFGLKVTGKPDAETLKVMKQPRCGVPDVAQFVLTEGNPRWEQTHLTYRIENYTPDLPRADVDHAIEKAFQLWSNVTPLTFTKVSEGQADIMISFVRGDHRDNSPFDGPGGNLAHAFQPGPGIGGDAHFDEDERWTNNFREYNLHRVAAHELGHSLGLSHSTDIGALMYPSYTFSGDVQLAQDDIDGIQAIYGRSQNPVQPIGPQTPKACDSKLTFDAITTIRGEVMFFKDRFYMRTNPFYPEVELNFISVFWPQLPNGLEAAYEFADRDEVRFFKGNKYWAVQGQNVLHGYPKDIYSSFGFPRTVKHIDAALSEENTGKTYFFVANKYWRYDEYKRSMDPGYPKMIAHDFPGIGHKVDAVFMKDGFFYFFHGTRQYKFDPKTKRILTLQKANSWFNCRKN

Biological target: Programmed cell death ligand 1 (human (endogenous in SAS and SCC15)) (UniProt Q9NZQ7)
Experiment: co-IP; total protein of SAS/SCC15 cells; immunoprecipitated with anti-MMP1 antibody and blotted with anti-PD-L1 antibody, and the reverse (IP anti-PD-L1, blot anti-MMP1)

Matrix metalloproteinase-1 (from UniProt P03956) (enzyme)
binding: binds
